The record followed here is publication PMC5312288.

Amino acid sequences for entries named in this document (tags omitted).
UniProt P49327: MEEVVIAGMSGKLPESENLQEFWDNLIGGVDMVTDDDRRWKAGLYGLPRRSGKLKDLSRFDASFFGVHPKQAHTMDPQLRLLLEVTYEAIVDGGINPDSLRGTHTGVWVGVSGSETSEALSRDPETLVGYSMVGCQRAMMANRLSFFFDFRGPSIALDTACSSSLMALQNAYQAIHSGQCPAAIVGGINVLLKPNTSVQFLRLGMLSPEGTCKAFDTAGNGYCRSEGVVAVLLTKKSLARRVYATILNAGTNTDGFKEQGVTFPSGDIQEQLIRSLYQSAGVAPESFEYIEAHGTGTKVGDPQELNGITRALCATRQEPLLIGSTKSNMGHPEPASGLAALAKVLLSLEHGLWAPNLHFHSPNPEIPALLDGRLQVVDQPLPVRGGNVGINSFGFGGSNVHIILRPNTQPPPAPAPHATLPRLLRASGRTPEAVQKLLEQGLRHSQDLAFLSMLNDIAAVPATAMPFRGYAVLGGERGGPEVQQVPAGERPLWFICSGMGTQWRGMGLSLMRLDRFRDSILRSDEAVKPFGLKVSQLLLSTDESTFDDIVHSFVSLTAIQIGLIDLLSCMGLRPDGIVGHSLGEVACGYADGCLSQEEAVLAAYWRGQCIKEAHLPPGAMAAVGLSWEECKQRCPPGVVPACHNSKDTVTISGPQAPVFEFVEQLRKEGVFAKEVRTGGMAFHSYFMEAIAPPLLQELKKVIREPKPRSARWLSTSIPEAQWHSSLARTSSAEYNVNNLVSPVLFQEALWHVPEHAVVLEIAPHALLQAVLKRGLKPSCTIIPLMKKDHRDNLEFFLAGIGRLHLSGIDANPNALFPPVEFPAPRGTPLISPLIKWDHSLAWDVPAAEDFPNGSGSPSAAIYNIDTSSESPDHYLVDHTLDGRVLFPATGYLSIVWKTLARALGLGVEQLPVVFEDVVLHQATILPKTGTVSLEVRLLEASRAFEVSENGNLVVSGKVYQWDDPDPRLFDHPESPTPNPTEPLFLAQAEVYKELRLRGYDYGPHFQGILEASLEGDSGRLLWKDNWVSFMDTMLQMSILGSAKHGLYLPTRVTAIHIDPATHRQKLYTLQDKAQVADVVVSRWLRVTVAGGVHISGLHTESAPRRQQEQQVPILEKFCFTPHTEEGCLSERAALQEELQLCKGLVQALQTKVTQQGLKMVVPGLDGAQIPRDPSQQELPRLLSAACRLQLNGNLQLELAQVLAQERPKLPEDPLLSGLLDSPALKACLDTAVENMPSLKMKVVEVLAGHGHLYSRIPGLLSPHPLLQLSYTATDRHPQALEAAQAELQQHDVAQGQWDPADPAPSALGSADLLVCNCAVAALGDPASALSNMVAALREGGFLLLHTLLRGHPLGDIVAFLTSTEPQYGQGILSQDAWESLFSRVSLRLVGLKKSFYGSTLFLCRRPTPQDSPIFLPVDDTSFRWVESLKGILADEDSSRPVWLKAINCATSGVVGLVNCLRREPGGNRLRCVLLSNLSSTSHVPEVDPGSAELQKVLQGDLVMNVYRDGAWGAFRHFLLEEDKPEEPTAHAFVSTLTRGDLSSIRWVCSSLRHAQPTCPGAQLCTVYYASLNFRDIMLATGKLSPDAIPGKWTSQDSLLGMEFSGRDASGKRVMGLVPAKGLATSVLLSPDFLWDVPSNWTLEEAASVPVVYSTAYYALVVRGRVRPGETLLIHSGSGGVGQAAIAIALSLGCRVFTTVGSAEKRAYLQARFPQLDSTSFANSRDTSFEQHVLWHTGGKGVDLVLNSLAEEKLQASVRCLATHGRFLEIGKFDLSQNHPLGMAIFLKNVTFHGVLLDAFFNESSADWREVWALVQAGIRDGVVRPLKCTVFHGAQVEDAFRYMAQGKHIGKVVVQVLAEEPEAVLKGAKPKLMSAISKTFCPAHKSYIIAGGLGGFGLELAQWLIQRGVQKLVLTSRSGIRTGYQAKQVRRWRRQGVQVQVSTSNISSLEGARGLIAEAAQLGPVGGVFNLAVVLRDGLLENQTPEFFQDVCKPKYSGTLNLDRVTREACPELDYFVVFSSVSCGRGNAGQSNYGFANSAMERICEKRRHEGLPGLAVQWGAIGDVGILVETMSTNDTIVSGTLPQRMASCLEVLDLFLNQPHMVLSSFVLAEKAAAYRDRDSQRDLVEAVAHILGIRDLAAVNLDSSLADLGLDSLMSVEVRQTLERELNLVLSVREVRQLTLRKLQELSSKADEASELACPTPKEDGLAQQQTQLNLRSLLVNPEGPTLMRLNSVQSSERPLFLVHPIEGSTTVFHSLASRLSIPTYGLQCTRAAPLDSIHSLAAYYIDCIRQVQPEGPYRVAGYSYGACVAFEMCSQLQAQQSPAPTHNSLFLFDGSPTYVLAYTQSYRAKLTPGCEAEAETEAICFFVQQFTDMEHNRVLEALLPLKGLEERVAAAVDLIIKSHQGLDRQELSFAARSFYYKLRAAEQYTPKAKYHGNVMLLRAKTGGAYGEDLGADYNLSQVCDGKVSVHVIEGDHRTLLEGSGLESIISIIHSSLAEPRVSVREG

The target of the test is Fatty acid synthase (human (endogenous in HMEC, SUM149PT, SUM1315MO2)) (UniProt P49327). The test is described as follows: co-IP; reverse: lysates of SUM149PT and SUM1315MO2 cells immunoprecipitated with anti-FASN antibody, immunoblotted for OPG and FASN. (In western blotting, separated proteins are transferred to a membrane and probed.)

Results are given in words; binding and its absence hold for the method and conditions named. Binding seen in cells or lysates may run through a third protein. Some binding calls cover weakened binding; strength is not graded here.

B1: Osteoprotegerin (protein, UniProt O00300 22-401)
chain: ETFPPKYLHYDEETSHQLLCDKCPPGTYLKQHCTAKWKTVCAPCPDHYYTDSWHTSDECLYCSPVCKELQYVKQECNRTHNRVCECKEGRYLEIEFCLKHRSCPPGFGVVQAGTPERNTVCKRCPDGFFSNETSSKAPCRKHTNCSVFGLLLTQKGNATHDNICSGNSESTQKCGIDVTLCEEAFFRFAVPTKFTPNWLSVLVDNLPGTKVNAESVERIKRQHSSQEQTFQLLKLWKHQNKDQDIVKKIIQDIDLCENSVQRHIGHANLTFEQLRSLMESLPGKKVGAEDIEKTIKACKPSDQILKLLSLWRIKNGDQDTLKGLMHALKHSKTYHFPKTVTQSLKKTIRFLHSFTMYKLYQKLFLEMIGNQVQSVKISCL
On to B1, for which the binding result was “binds”.
